In paper PMC7819943, “Rice protein-binding microarrays: a tool to detect cis-acting elements near promoter regions in rice”:
The other results are listed elsewhere or left out.

The chains behind the UniProt entries cited, without tags or fusion partners.
UniProt Q0JBA9, entry or part of it: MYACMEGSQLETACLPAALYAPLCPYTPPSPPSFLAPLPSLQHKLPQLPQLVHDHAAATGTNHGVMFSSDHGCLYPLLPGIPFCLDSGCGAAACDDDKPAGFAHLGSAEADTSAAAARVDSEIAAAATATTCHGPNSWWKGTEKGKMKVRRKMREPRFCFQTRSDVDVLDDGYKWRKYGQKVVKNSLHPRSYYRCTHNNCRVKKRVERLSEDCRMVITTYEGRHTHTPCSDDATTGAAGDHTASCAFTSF

The sequences below were run against OsWRKY34 (Oryza sativa, UniProt Q0JBA9 1-250) (assay: protein-binding microarray (RPBM); PBS, 2% BSA, 51.3 ng/ul salmon testes DNA, 50 uM zinc acetate, 200 nM TF, 25 C, 1 h; high values mean tight binding). Conditions: protein: recombinant; tags: N-terminal polyhistidine and DsRed monomer fusion (pET32a); label: CyDye5-dUTP incorporated in the synthesized complementary strand; 3' TTTTT single-stranded linker to array surface; dsDNA, one strand shown.
Summary of the method: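 Binding signal here means per-feature fluorescence intensity in arbitrary units. The values were read on an Axon 4000B scanner after a custom Agilent array, double-stranded by primer extension with Cy5-dUTP, was incubated with 200 nM protein at 25 °C for 1 h in PBS with 2% BSA, salmon testes DNA and 50 µM zinc acetate, then washed. The proteins were transcription factors with an N-terminal polyhistidine tag and DsRed, expressed in E. coli BL21-CodonPlus and purified on Ni–NTA.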
With “GGTATCTGTTTTTAGTTCGTGCCACACTTATGGCAAGATTCGGAGTCACCTAGTGCAG” the binding signal was 10900 fluorescence intensity (a.u.). For “AGGATGTGTCTCGCATCAGTTCTATCTTGTTTTTTTTTATCGGAGTCACCTAGTGCAG”, the binding signal was 9200 fluorescence intensity (a.u.). “AAATCCCACCCAAAATTTTTTATTGTCACATCGAACGTTTCGGAGTCACCTAGTGCAG” was tested, and the binding signal was 8930 fluorescence intensity (a.u.). In the case of “CGCTCTCTTGTTGACCACCTCGCGTTGCACTGGGCCAGCCCGGAGTCACCTAGTGCAG”, the binding signal is reported as 9490 fluorescence intensity (a.u.). In the case of “TTTGCTGCTGCTGCTTCTAGGGTTAGGGTTTGGGGTGGGGCGGAGTCACCTAGTGCAG”, the binding signal is reported as 22100 fluorescence intensity (a.u.). “CCAAACCAAACCAAATCTTTCAGTCCTTGTCACACAGATCCGGAGTCACCTAGTGCAG” was tested, and the binding signal was 8030 fluorescence intensity (a.u.). For “TAGCACCATTATACATTCATTTTCACAAAGAAAATATATCCGGAGTCACCTAGTGCAG”, the binding signal was 8350 fluorescence intensity (a.u.). In the case of “CCTCCGCCGCCATCCATCTATTCGCGCCGCACCGCCCGCTCGGAGTCACCTAGTGCAG”, the binding signal is reported as 10400 fluorescence intensity (a.u.). For “AGGTTTTGTTAGAGAATTTTAGTGGTATTGTAGCCTATTTCGGAGTCACCTAGTGCAG”, the binding signal was 8190 fluorescence intensity (a.u.). With “GGTTGTCTATGTGGAGCTTTACCTCTTTCTTCTTCTTCTTCGGAGTCACCTAGTGCAG” the binding signal was 10300 fluorescence intensity (a.u.). In the case of “TGTCGACCGAGCCAAGAACCCTCGCCCACACACACACACACGGAGTCACCTAGTGCAG”, the binding signal is reported as 10200 fluorescence intensity (a.u.). With “TAGTCTGTACCCTACGCCATCCCAGGAATCCGCGCCCTGGCGGAGTCACCTAGTGCAG” the binding signal was 8620 fluorescence intensity (a.u.). With “CCCTCCACAACTTTCCTTTTCTTTGAGAATGGATTCCCTCCGGAGTCACCTAGTGCAG” the binding signal was 10100 fluorescence intensity (a.u.). “CCTCATTAGCTAGCTTTTTAGGGTGGGGAAGGCCCTTTACCGGAGTCACCTAGTGCAG” was tested, and the binding signal was 12700 fluorescence intensity (a.u.). For “CGCTTCCCACAACTTGCAGTCACGGTCAACACGAAACGAACGGAGTCACCTAGTGCAG”, the binding signal was 9350 fluorescence intensity (a.u.). In the case of “GCTTAAGTTTTAACCATTCCTGACACGTTTAACAGCGAATCGGAGTCACCTAGTGCAG”, the binding signal is reported as 8360 fluorescence intensity (a.u.). “CCTCTCCCAATCTCCAAAGTGTCATTTCACATTGACTTCACGGAGTCACCTAGTGCAG” was tested, and the binding signal was 8950 fluorescence intensity (a.u.). With “ACCCGTCACCAACCTAGCTCGCGAGACAGCTCATCATTTGCGGAGTCACCTAGTGCAG” the binding signal was 8540 fluorescence intensity (a.u.). With “GCCTTCGCTCTTCGTCGGGTCAGCTCCTGCCTTCCAAAGTCGGAGTCACCTAGTGCAG” the binding signal was 9040 fluorescence intensity (a.u.). “GGAGGAAGCCTACCTTTGCCATTATCTTTTCGTGGGCCCACGGAGTCACCTAGTGCAG” was tested, and the binding signal was 8640 fluorescence intensity (a.u.). For “TTCGATACGTTTCACGTTTGCTACCACACAACACATTTCACGGAGTCACCTAGTGCAG”, the binding signal was 9420 fluorescence intensity (a.u.). In the case of “CCCGGCCACATTATTTCGGGTCAAATTCGGGTCGAGAATTCGGAGTCACCTAGTGCAG”, the binding signal is reported as 8330 fluorescence intensity (a.u.). In the case of “TCATCCATAGTTAAAAGCAAGTTGGTCTGACCATATTCTTCGGAGTCACCTAGTGCAG”, the binding signal is reported as 8390 fluorescence intensity (a.u.). For “TGTAACTAACCATAAAGCTACCCTCATACTTGCTGATAACCGGAGTCACCTAGTGCAG”, the binding signal was 8800 fluorescence intensity (a.u.). With “AACTCGGCTCAACTCGTACGCACCGGCGCTGCCGCGCCTTCGGAGTCACCTAGTGCAG” the binding signal was 10400 fluorescence intensity (a.u.). For “CATCCAAACCGTCCATCCACGCGCACAGTACACACACATACGGAGTCACCTAGTGCAG”, the binding signal was 11200 fluorescence intensity (a.u.). “ATGATGTATCTGTATCAACTTGTTCAATCTCGGTTAACTGCGGAGTCACCTAGTGCAG” was tested, and the binding signal was 8090 fluorescence intensity (a.u.). “CTCTCAATACGAAATATCGTACTACGTTATGCATTTGTTTCGGAGTCACCTAGTGCAG” was tested, and the binding signal was 8160 fluorescence intensity (a.u.). For “TTCATTTACTAGTTATTGGGGTTCTTCTTCAGATCATTTGCGGAGTCACCTAGTGCAG”, the binding signal was 9370 fluorescence intensity (a.u.). With “TAACACCCTCCGCGCATTTACCGCTCGCCGCTCCGCCGTACGGAGTCACCTAGTGCAG” the binding signal was 8330 fluorescence intensity (a.u.). With “ATTATAAGGTATTGCATGCTATGTTTTCCTTGCGACTTAACGGAGTCACCTAGTGCAG” the binding signal was 8650 fluorescence intensity (a.u.). “TATTTGGACTCTATACTCTACTTCTAATATTCGTTATTTTCGGAGTCACCTAGTGCAG” was tested, and the binding signal was 9980 fluorescence intensity (a.u.). With “TGTAGGATGTATTTGGAGTTTCAACTAGTTCCAAGATTTTCGGAGTCACCTAGTGCAG” the binding signal was 10100 fluorescence intensity (a.u.). For “TCCCACTATTTCCTATCTCTCGCGTCGCGCCGCGCACTCCCGGAGTCACCTAGTGCAG”, the binding signal was 9080 fluorescence intensity (a.u.). In the case of “CCTCGCCGGACAAGTAAAGTAAGCTCATCTCTTGCGCTTTCGGAGTCACCTAGTGCAG”, the binding signal is reported as 8130 fluorescence intensity (a.u.). With “AACTGAAAGATCATTGTACACACCAGCATTACCTGTAAACCGGAGTCACCTAGTGCAG” the binding signal was 8370 fluorescence intensity (a.u.). For “CGTCCATGCACTTCACTCAATTTTTTTCTTTGCACATAACCGGAGTCACCTAGTGCAG”, the binding signal was 10400 fluorescence intensity (a.u.). In the case of “TCTCGTTTGAAGTTTTTTTTTTTCGCGTGTCCACAACCATCGGAGTCACCTAGTGCAG”, the binding signal is reported as 9480 fluorescence intensity (a.u.). With “CTCATCTCGCCCTTCTTTGCCACCGCCAACATCTTCGTCGCGGAGTCACCTAGTGCAG” the binding signal was 11900 fluorescence intensity (a.u.). In the case of “AAGTCTTTGATCCCCTTTAATTCCTTGTTCCATGTACTACCGGAGTCACCTAGTGCAG”, the binding signal is reported as 9080 fluorescence intensity (a.u.). “GGCGGGTGGTGATGGCGGGGAGGCAGGCCAACGAGCGCGACGGAGTCACCTAGTGCAG” was tested, and the binding signal was 10700 fluorescence intensity (a.u.). “TGTCGTTGTTGTCATCGTTCTTTAATTTCCTGTCCTTTCACGGAGTCACCTAGTGCAG” was tested, and the binding signal was 10300 fluorescence intensity (a.u.).
